Data: publication PMC12699179, “Investigating Metal and Fluorophore Controlled Intracellular Localization in Noble Metal Thiosemicarbazone Complexes” (Chemistry (Weinheim an Der Bergstrasse, Germany), 2025)
“And” between values parts separate entries of the source, which are not always exact repeats. Equal entries are not always repeated.

Tests used:
[1] = test system: HeLa cells; assay: X-ray fluorescence (XRF) imaging of subcellular Pt distribution; assay type: cell-based; settings: 30 µM, 24 hours, XRF imaging with LysoTracker
Source text: To further validate the stark difference in the localization patterns between the coumarin‐conjugated Pt(II) complex 5b and the remaining Pt(II) (7b) and Pd(II) complexes (5c and 7c), we envisioned investigating their subcellular distributions via X‐ray fluorescence (XRF) imaging.^[ [35] ^] While XRF has been used to determine subcellular distributions of Pt complexes,^[ [36] ^] the technique has not been applied for the analysis of Pd complexes in cells, to the best of our knowledge. Nevertheless, we harnessed our experience and proceeded with the preparations for XRF samples for 2D imaging of HeLa cells (30 µM).^[ [37] ^] […]
12. X-ray fluorescence imaging (HeLa) […]
imaged with a Nikon Eclipse Ti fluorescence microscope. […]
stored in liquid nitrogen until the X-ray fluorescence measurements. […]
samples were measured at a base pressure of ≈10−7 mbar at a sample temperature of 120 K. […]
2×1010 photons/s. The fluorescence signal was detected by a Rococo 2 detector (PN […]
analyzed by peak deconvolution and fitting using the fast XRF stacking function of the software […]
calculated using a thin film XRF reference sample "RF17-200-S4218-41 "(AXO Dresden, […]
platinum (Pt – Lβ1), respectively. Also shown at the bottom is the X-ray fluorescence spectrum, […]
X-ray fluorescence spectrum, which confirms the presence of Pt in the sample. […]

[2] = test system: HeLa cells; assay: Live-cell confocal microscopy, colocalization with organelle trackers; assay type: cell-based; settings: 10 µM; for subcellular localization pattern: 6 hours and 24 hours, confocal microscopy
Experimental: The subcellular behavior of the compounds was then assessed using a confocal microscope following incubation with HeLa cells (10 µM) for 6 hours and 24 hours, respectively (Figures S56, S57, and 5, 6). Moreover, we performed colocalization experiments with appropriate commercial organelle tracking dyes. As controls, we used the methyl and ethyl esters of 1 and 2, 1‐OMe and 2‐OEt, respectively. […] Moreover, the Pearson Correlation Coefficients (PCC) between 6 and the commercial lysosome tracker (LysoTracker deep red) channel improved over time from 0.63 to 0.81. Additionally, the distribution was distinct from 2‐OEt, corroborating that the Dp44mT scaffold directed the localization of the conjugates. Therefore, attaching BODIPY had no discernible effect on the lysosomal accumulation of Dp44mT.
Figure S55: Excitation (Exc) and emission (Em) spectra of BODIPY conjugates 6 and 7 at 10 µM in water. For (A) 6 and (B) 7a compounds, λex = 502 nm and λem = 519 nm; Slitwidth: […]; Sensitivity: low and medium, respectively. For (C) 7b and (D) 7c, λex = 519 nm and λem = 519 nm; Slitwidth: 5 mm; Sensitivity: medium
Live-cell imaging was carried out in 8-well cell culture chamber slides from ibidi at a starting density of 20000 cells per well in 200 µL of culture medium. The cells were incubated for 24 h at 37 °C under a 10% CO2 atmosphere. Then, 100 μL media containing the respective compounds 4, 5, 6, or 7 was added to reach a final volume of 300 μL per well with a final compound concentration of 10 μM. As controls, untreated HeLa cells were prepared under the same conditions but without the active compounds. After 6 h or 24 h of incubation, as appropriate, the media was removed, and the cells were washed twice with DMEM medium without phenol red (clear medium). A clear media solution of 100 nM LysoTrackerTM Deep-Red (InvitrogenTM) (λexc/λem = 650/660 nm) or 200 nM MitoTrackerTM Deep-Red FM (InvitrogenTM) (λexc/λem = 644/665 nm) or 750 nM ER-Tracker™ Red (InvitrogenTM) (λexc/λem = 587/615 nm) was then appropriately added to the cells, and they were incubated for another 30 min at 37 °C. Afterwards, the cells were washed twice with fresh clear medium and then covered with 200 μL clear medium for the duration of the microscopic investigations. The imaging was carried out at 37 °C using a Leica TCS-SP8 confocal laser scanning microscope equipped with an unpulsed 442 nm laser and a pulsed white light laser (WLL) (470 nm – 670 nm) using hybrid PMT or SMD detectors. Compounds 4 and 5 were excited using the 442 nm laser, and the emission was collected between 470 and 490 nm. Compounds 6 and 7 were excited at 502 nm using the WLL, and the emission was collected between 515 and 530 nm. The tracker dyes were excited at the indicated wavelengths using the WLL, and the emissions were […]
collected at the appropriate emission wavelengths. Images were acquired at 1024 x 1024 pixels and processed using LASX office program. The corresponding Pearson's Correlation Coefficients (PCCs) were calculated using Fiji (version 1.54f).[7] All experiments were repeated […]
Figure S56: Live-cell images acquired after incubating compounds 4‒5 and the control 1-OMe with HeLa cells for 6 h, respectively, at 10 µM. […]
and the red channel LysoTracker deep red. The merged channels and the corresponding Pearson Correlation Coefficients (PCC) ± standard deviation are shown on the right of each column.
(1 picture or pasted object on this page, not shown here)

| Structure (SMILES) | subcellular distribution of Pt [1] | subcellular localization pattern [2] | Pearson Correlation Coefficient (PCC) with LysoTracker deep red ([2]; 24 hours, ± standard deviation) | Pearson Correlation Coefficient (PCC) with LysoTracker deep red ([2]; 6 hours) | Pearson Correlation Coefficient (PCC) with MitoTracker ([2]; 24 hours, ± standard deviation) |
| --- | --- | --- | --- | --- | --- |
| CN(C)C1=N[N+]2=C(c3cccc(CCNC(=O)CCCNC(=O)c4cc5cc6c7c(c5oc4=O)CCCN7CCC6)n3)c3cccc[n+]3[Pt-2]2([Cl])[S]1 (stereo not drawn) [Compound 5b] | colocalized with the LysoTracker | preferentially localized within lysosomes | 0.78 ± 0.03 |  |  |
| CN(C)C(=S)NN=C(c1ccccn1)c1cccc(CCNC(=O)CCCNC(=O)c2cc3cc4c5c(c3oc2=O)CCCN5CCC4)n1 [Compound 4] |  |  | 0.86 ± 0.03 |  |  |
| CCOC(=O)CCc1ccc2n1[B-](F)(F)[N+]1=C(C)C=C(C)C1=C2 [Compound 2-OEt, reference compound] |  |  | 0.40 ± 0.10 |  |  |
| CN(C)C1=N[N+]2=C(c3cccc(CCNC(=O)CCCNC(=O)c4cc5cc6c7c(c5oc4=O)CCCN7CCC6)n3)c3cccc[n+]3[Au-]2([Cl])[S]1.F[P-](F)(F)(F)(F)F (stereo not drawn) [Compound 5a] |  | localization patterns mirroring those of their ligands | 0.80 ± 0.03 | significantly superior to that of its ligand |  |
| CC1=CC(C)=[N+]2C1=Cc1ccc(CCC(=O)NCCc3cccc(C(=NNC(=S)N(C)C)c4ccccn4)n3)n1[B-]2(F)F [Compound 6] |  | localized in lysosomes, swelling them after 24 hours | 0.81 and 0.81 ± 0.01 | 0.63 |  |
| CC1=CC(C)=[N+]2C1=Cc1ccc(CCC(=O)NCCc3cccc(C4=[N+]5N=C(N(C)C)[S][Au-]5([Cl])[n+]5ccccc54)n3)n1[B-]2(F)F.F[P-](F)(F)(F)(F)F (stereo not drawn) [Compound 7a] |  | localization patterns mirroring those of their ligands | 0.73 ± 0.01 |  |  |
| COC(=O)c1cc2cc3c4c(c2oc1=O)CCCN4CCC3 [Compound 1-OMe, reference compound] |  |  | 0.46 ± 0.03 |  |  |
| CC1=CC(C)=[N+]2C1=Cc1ccc(CCC(=O)NCCc3cccc(C4=[N+]5N=C(N(C)C)[S][Pt-2]5([Cl])[n+]5ccccc54)n3)n1[B-]2(F)F (stereo not drawn) [Compound 7b] | diffusely cytosolic distribution | distributed throughout the cytoplasm | 0.47 ± 0.05 |  | 0.38 ± 0.03 |
